Laboratory results published in US20170355736A1, “MORTALIN PEPTIDES AND ANTIBODIES AND USES THEREOF FOR INHIBITING MORTALIN ACTIVITY AND TREATING A DISEASE ASSOCIATED WITH A PATHOLOGICAL CELL” (Ramot at Tel-Aviv University Ltd., priority 2014, published 2017).
No constants are given. Whether binding was seen depends on the method and setting. Some results given as binding are weak or reduced against the parent protein; the word gives no strength.

The chains behind the UniProt entries cited, without tags or fusion partners. Where a name states a change or a piece, a line headed by the entry shows the natural chain unless it says otherwise.
UniProt P02748: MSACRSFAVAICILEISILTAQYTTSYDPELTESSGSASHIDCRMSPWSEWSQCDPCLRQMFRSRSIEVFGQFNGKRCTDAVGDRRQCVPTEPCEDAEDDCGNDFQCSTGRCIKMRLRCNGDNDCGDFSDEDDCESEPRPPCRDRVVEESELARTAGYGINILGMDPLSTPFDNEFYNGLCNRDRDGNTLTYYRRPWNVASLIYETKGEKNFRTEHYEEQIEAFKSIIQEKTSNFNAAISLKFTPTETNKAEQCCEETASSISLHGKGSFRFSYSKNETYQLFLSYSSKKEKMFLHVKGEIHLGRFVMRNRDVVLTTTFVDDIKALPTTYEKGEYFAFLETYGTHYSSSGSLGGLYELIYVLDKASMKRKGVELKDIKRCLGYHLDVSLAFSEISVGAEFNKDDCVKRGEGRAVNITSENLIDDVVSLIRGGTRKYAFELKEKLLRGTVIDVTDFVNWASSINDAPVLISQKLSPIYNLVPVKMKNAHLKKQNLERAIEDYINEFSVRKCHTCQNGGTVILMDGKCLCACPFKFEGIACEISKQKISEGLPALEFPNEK
UniProt P38646: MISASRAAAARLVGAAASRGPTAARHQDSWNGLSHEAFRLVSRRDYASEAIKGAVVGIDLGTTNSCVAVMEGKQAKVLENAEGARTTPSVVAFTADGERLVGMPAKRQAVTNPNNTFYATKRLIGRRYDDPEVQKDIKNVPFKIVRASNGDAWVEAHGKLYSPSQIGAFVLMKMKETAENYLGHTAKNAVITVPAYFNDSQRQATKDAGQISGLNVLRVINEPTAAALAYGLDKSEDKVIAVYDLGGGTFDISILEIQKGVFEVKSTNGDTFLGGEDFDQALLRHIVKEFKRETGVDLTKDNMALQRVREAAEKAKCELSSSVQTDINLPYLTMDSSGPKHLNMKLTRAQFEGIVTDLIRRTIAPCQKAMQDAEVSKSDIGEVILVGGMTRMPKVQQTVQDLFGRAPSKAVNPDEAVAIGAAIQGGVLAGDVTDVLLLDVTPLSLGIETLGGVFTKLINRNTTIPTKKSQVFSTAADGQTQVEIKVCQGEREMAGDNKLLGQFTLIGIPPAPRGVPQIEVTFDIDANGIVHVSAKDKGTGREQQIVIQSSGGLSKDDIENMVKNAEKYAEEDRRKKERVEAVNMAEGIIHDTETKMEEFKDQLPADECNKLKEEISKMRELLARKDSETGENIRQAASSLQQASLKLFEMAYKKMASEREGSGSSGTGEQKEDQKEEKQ

Target: Purified human C9 (Homo sapiens, UniProt P02748)
Assay: ELISA: purified human C9 (0.057 µM) coated, His-tagged mortalin (0.007 µM), anti-His antibody, OD 492 nm

## His-tagged recombinant mortalin (from UniProt P38646 47-679)
  binding: binds
